PubChem BioAssay AID652243 – Drosophila RNAi Screening Center, 2013
The screen tested about 24,000 reagents; shown is an unselected part of those with a known target gene and a result. Of all reagents, 246 (1%) are marked active. 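Plates not normalised; calls are printed but the firefly/Renilla ratio behind them is not deposited; fold cut for lowering reported inconsistently.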 The raw values are shown without normalisation. The record does not give: the amount of reagent.

- Screen: 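Fly genes required for human androgen receptor driven transcription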 (primary screen)
- Cells: Drosophila S2R+ cells
- Reagent: long dsRNA against Drosophila genes
- Time to read-out: 72 h (48 h, then 24 h hormone)
- Conditions: synthetic androgen R1881 at 10 nM for 24 h
- Detection: 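Firefly light from an androgen-responsive reporter and Renilla control light per well, raw and unnormalised, for each of two replicates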
- Scale: firefly reporter light: higher = more light from androgen-responsive reporter; Renilla control light: higher = more constitutive control signal (cell number, transfection)
- Call rule: 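Across duplicate plates, a knock-down whose log firefly/Renilla ratio shifted a set fold down or up from the GFP/LacZ control mean was a hit; the downward cut appears as both 1.5 and 3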
- Meaning of the calls: active = hit: reporter lowered or raised; inactive = no hit

How did the screen score aurA (aurora A) [DRSC16905]?
firefly reporter light, replicate 1: 1.62e5; firefly reporter light, replicate 2: 1.76e5; Renilla control light, replicate 1: 2.00e6; Renilla control light, replicate 2: 2.54e6; activity call: inactive

For aurA (aurora A) [DRSC27171], what does the deposit list?
firefly reporter light, replicate 1: 2.06e5; firefly reporter light, replicate 2: 1.77e5; Renilla control light, replicate 1: 6.63e5; Renilla control light, replicate 2: 6.18e5; activity call: active

With Cad86C (Cadherin 86C) [DRSC15587], how do the results read?
firefly reporter light, replicate 1: 1.28e5; firefly reporter light, replicate 2: 1.93e5; Renilla control light, replicate 1: 3.02e6; Renilla control light, replicate 2: 3.67e6; activity call: inactive

What is on record for Cad86C (Cadherin 86C) [DRSC15611]?
firefly reporter light, replicate 1: 1.83e5; firefly reporter light, replicate 2: 2.33e5; Renilla control light, replicate 1: 2.63e6; Renilla control light, replicate 2: 2.07e6; activity call: inactive

For Cad86C (Cadherin 86C) [DRSC27602], how do the results read?
firefly reporter light, replicate 1: 2.64e5; firefly reporter light, replicate 2: 2.42e5; Renilla control light, replicate 1: 4.38e5; Renilla control light, replicate 2: 6.43e5; activity call: inactive

For Cad86C (Cadherin 86C) [DRSC28094], what does the deposit list?
firefly reporter light, replicate 1: 9.12e5; firefly reporter light, replicate 2: 1.13e6; Renilla control light, replicate 1: 1.41e6; Renilla control light, replicate 2: 1.53e6; activity call: inactive

What did the screen give for lectin-33A [DRSC02529]?
firefly reporter light, replicate 1: 2.51e5; firefly reporter light, replicate 2: 3.39e5; Renilla control light, replicate 1: 1.96e6; Renilla control light, replicate 2: 1.89e6; activity call: inactive

With lectin-33A [DRSC22116], what was measured?
firefly reporter light, replicate 1: 8.38e5; firefly reporter light, replicate 2: 7.98e5; Renilla control light, replicate 1: 2.18e6; Renilla control light, replicate 2: 1.55e6; activity call: inactive

What is on record for CG15696 [DRSC15118]?
firefly reporter light, replicate 1: 2.11e5; firefly reporter light, replicate 2: 2.30e5; Renilla control light, replicate 1: 2.61e6; Renilla control light, replicate 2: 3.49e6; activity call: inactive

What is on record for CG15696 [DRSC25170]?
firefly reporter light, replicate 1: 7.52e5; firefly reporter light, replicate 2: 6.98e5; Renilla control light, replicate 1: 6.12e5; Renilla control light, replicate 2: 6.86e5; activity call: inactive

For CG32099 [DRSC21352], how do the results read?
firefly reporter light, replicate 1: 6.80e5; firefly reporter light, replicate 2: 6.78e5; Renilla control light, replicate 1: 1.81e6; Renilla control light, replicate 2: 1.51e6; activity call: inactive

For gskt (gasket) [DRSC14056], what was measured?
firefly reporter light, replicate 1: 1.04e6; firefly reporter light, replicate 2: 1.09e6; Renilla control light, replicate 1: 2.07e6; Renilla control light, replicate 2: 1.33e6; activity call: inactive

How did the screen score gskt (gasket) [DRSC25861]?
firefly reporter light, replicate 1: 2.66e5; firefly reporter light, replicate 2: 2.99e5; Renilla control light, replicate 1: 8.53e5; Renilla control light, replicate 2: 8.16e5; activity call: inactive

How did the screen score CG17440 [DRSC18126]?
firefly reporter light, replicate 1: 2.60e5; firefly reporter light, replicate 2: 2.67e5; Renilla control light, replicate 1: 2.90e6; Renilla control light, replicate 2: 3.38e6; activity call: inactive

How did the screen score TwdlN (TweedleN) [DRSC25037]?
firefly reporter light, replicate 1: 5.78e5; firefly reporter light, replicate 2: 6.09e5; Renilla control light, replicate 1: 8.89e5; Renilla control light, replicate 2: 1.09e6; activity call: inactive

For CG12746 [DRSC12218], what was measured?
firefly reporter light, replicate 1: 40811; firefly reporter light, replicate 2: 51841; Renilla control light, replicate 1: 1.77e5; Renilla control light, replicate 2: 1.90e5; activity call: inactive

What is on record for CG12746 [DRSC36915]?
activity call: inactive

With swi2 [DRSC06457], what does the deposit list?
firefly reporter light, replicate 1: 42121; firefly reporter light, replicate 2: 66334; Renilla control light, replicate 1: 7.64e5; Renilla control light, replicate 2: 7.64e5; activity call: inactive

What did the screen give for CG34180 [DRSC38745]?
firefly reporter light, replicate 1: 7.80e5; firefly reporter light, replicate 2: 7.65e5; Renilla control light, replicate 1: 1.95e6; Renilla control light, replicate 2: 2.72e6; activity call: inactive

Which result is listed for CG33460 [DRSC05570]?
firefly reporter light, replicate 1: 3.36e5; firefly reporter light, replicate 2: 1.69e5; Renilla control light, replicate 1: 4.92e5; Renilla control light, replicate 2: 4.87e5; activity call: inactive

For CG42264 [DRSC18074], what was measured?
firefly reporter light, replicate 1: 1.78e5; firefly reporter light, replicate 2: 2.62e5; Renilla control light, replicate 1: 2.32e6; Renilla control light, replicate 2: 2.81e6; activity call: inactive

For CG42264 [DRSC18075], how do the results read?
firefly reporter light, replicate 1: 2.44e5; firefly reporter light, replicate 2: 2.91e5; Renilla control light, replicate 1: 2.21e6; Renilla control light, replicate 2: 2.01e6; activity call: inactive

What is on record for CG42264 [DRSC28051]?
firefly reporter light, replicate 1: 4.70e5; firefly reporter light, replicate 2: 4.11e5; Renilla control light, replicate 1: 1.39e6; Renilla control light, replicate 2: 1.28e6; activity call: inactive

What did the screen give for CG1387 [DRSC17904]?
firefly reporter light, replicate 1: 1.56e5; firefly reporter light, replicate 2: 60364; Renilla control light, replicate 1: 5.32e5; Renilla control light, replicate 2: 5.55e5; activity call: inactive

With OS9 (Olfactory-specific 9) [DRSC02700], what was measured?
firefly reporter light, replicate 1: 71111; firefly reporter light, replicate 2: 1.04e5; Renilla control light, replicate 1: 1.06e6; Renilla control light, replicate 2: 1.03e6; activity call: inactive

With OS9 (Olfactory-specific 9) [DRSC27743], how do the results read?
firefly reporter light, replicate 1: 3.88e5; firefly reporter light, replicate 2: 4.14e5; Renilla control light, replicate 1: 8.67e5; Renilla control light, replicate 2: 9.29e5; activity call: inactive

With Psf3 (Partner of Sld Five 3) [DRSC18216], what does the deposit list?
firefly reporter light, replicate 1: 4.54e5; firefly reporter light, replicate 2: 5.77e5; Renilla control light, replicate 1: 3.37e6; Renilla control light, replicate 2: 4.25e6; activity call: inactive

How did the screen score Psf3 (Partner of Sld Five 3) [DRSC21487]?
firefly reporter light, replicate 1: 9.77e5; firefly reporter light, replicate 2: 7.57e5; Renilla control light, replicate 1: 3.25e6; Renilla control light, replicate 2: 2.21e6; activity call: inactive

A portion of the results above:
Cad86C (Cadherin 86C) [DRSC27602] | firefly reporter light, replicate 1 = 2.64e5; firefly reporter light, replicate 2 = 2.42e5; Renilla control light, replicate 1 = 4.38e5; Renilla control light, replicate 2 = 6.43e5; activity call = inactive
Cad86C (Cadherin 86C) [DRSC28094] | firefly reporter light, replicate 1 = 9.12e5; firefly reporter light, replicate 2 = 1.13e6; Renilla control light, replicate 1 = 1.41e6; Renilla control light, replicate 2 = 1.53e6; activity call = inactive
lectin-33A [DRSC02529] | firefly reporter light, replicate 1 = 2.51e5; firefly reporter light, replicate 2 = 3.39e5; Renilla control light, replicate 1 = 1.96e6; Renilla control light, replicate 2 = 1.89e6; activity call = inactive
lectin-33A [DRSC22116] | firefly reporter light, replicate 1 = 8.38e5; firefly reporter light, replicate 2 = 7.98e5; Renilla control light, replicate 1 = 2.18e6; Renilla control light, replicate 2 = 1.55e6; activity call = inactive
